Test results as given in PMC8621456, “New Investigations with Lupane Type A-Ring Azepane Triterpenoids for Antimycobacterial Drug Candidate Design” (International Journal of Molecular Sciences, 2021).

What was measured:
Assay in all cases: Cytotoxicity, MTT assay
Conditions in all cases: ratio of CC50/MIC
HepG2 (ATCC HB-8065) = test system: HepG2 (ATCC HB-8065)
THP-1 (ATCC TIB-202) = test system: THP-1 (ATCC TIB-202)
HeLa (ATCC CCL-2) = test system: HeLa (ATCC CCL-2)

| Structure (SMILES) | HepG2 SI (HepG2 (ATCC HB-8065)) | THP-1 SI (THP-1 (ATCC TIB-202)) | HeLa SI (HeLa (ATCC CCL-2)) |
| --- | --- | --- | --- |
| C=C(C)[C@@H]1CC[C@]2(C)CC[C@]3(C)[C@H](CC[C@@H]4[C@@]5(C)CCCNC(C)(C)[C@@H]5CC[C@]43C)[C@@H]12 [Compound 2, azepano-lupeol] | 0.08 | 0.5 | 0.52 |
| CC1(C)CCC23CCC4(C)C(CCC5C6(C)CCCNC(C)(C)C6CCC54C)C2C1OC3 (centres unmarked) [Compound 17] | 0.04 | 0.47 | 0.24 |
| C=C(C)[C@@H]1CC[C@]2(CN)CC[C@]3(C)[C@H](CC[C@@H]4[C@@]5(C)CCCNC(C)(C)[C@@H]5CC[C@]43C)[C@@H]12 [Compound 3] | 0.07 | 1 | 0.34 |
| C=C(C)[C@@H]1CC[C@]2(C(=O)NC(CO)Cc3ccccc3)CC[C@]3(C)[C@H](CC[C@@H]4[C@@]5(C)CCCNC(C)(C)[C@@H]5CC[C@]43C)[C@@H]12 (some centres unmarked) [Compound 8] | 0.09 | 0.55 |  |
| C=C(C)[C@@H]1CC[C@]2(C(=O)NC3CCCCC3)CC[C@]3(C)[C@H](CC[C@@H]4[C@@]5(C)CCCNC(C)(C)[C@@H]5CC[C@]43C)[C@@H]12 [Compound 10] | 0.38 | 2.88 | 2.38 |
| C=C(C)[C@@H]1CC[C@]2(COC(=O)c3cccnc3)CC[C@]3(C)[C@H](CC[C@@H]4[C@@]5(C)CCCNC(C)(C)[C@@H]5CC[C@]43C)[C@@H]12 [Compound 5] | 0.74 | 1.97 | 2.22 |
| C=C(C)[C@@H]1CC[C@]2(C=NNC(=O)c3ccncc3)CC[C@]3(C)[C@H](CC[C@@H]4[C@@]5(C)CCCNC(C)(C)[C@@H]5CC[C@]43C)[C@@H]12 [Compound 7] | 3.83 | 20.5 | 22.52 |
| CC(C)=C1CCC=C2CC[C@]3(C)[C@H](CC[C@@H]4[C@@]5(C)CCCNC(C)(C)[C@@H]5CC[C@]43C)[C@H]21 [Compound 18] | 0.07 | 0.81 | 0.55 |
| C=C(C)[C@@H]1CC[C@]2(C(=O)N3CCN(C)CC3)CC[C@]3(C)[C@H](CC[C@@H]4[C@@]5(C)CCCNC(C)(C)[C@@H]5CC[C@]43C)[C@@H]12 [Compound 9] | 0.12 | 1.66 | 1.21 |
